This experiment in a line: qHTS Assay to Find Inhibitors of Chronic Active B-Cell Receptor Signaling. The settings on record: ABC-DLBCL IkBa-CBG/CBR reporter, luminescence ratio (green luciferase fused to IkBa over red control in TMD8 lymphoma cells), 4 h. An outline of the steps: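 TMD8 ABC-DLBCL cells carrying doxycycline-inducible green luciferase fused to IkappaBalpha plus unfused red luciferase were exposed to compounds (up to 46 uM) for 4 hrs at 37C. Activity came from the overlap-corrected green/red luminescence ratio.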

The mark [1] stands for this setting: measured here: CBR red luminescence, cell number.
[2] abbreviates: measured here: IkBa-CBG green luminescence.

The record followed here is PubChem BioAssay AID493014 (National Center for Advancing Translational Sciences (NCATS), 2011).

Structures are written as SMILES. The list shows a part of the results. Shown are side measurements of this screen, not its main read-out; they come without a call. Most of these compounds were active or inconclusive in the main read-out, so they are no random draw. The note in brackets gives the kind of curve behind each potency; many fits are weak.

For orientation: AC50 means the concentration at which the activity in the assay is half-maximal.

Turning to `Cc1c(C(=O)N2CCC[C@H]2CO)oc2c(F)cccc12`, the AC50 under setting [1] is 35.5 µM [falling, partial curve, poor fit].
Take `Cc1ccc(O)c(-c2cc(-c3cccc(F)c3)n[nH]2)c1`: under setting [1], the AC50 was 4.11 µM [rising, partial curve, poor fit].
On to `CCCCOc1ccc(CSc2nnc(C)n2N)cc1[N+](=O)[O-]`, for which, under setting [1], the AC50 was 2 µM [falling, partial curve].
`Cc1ccc(NC(=O)C2C3CCCC2C3c2ccccc2)cc1` (stereo not drawn): the AC50 under setting [1] was 16.4 µM [rising, partial curve, poor fit].
On the same count and under the same terms, as for `O/N=C/c1ccccc1OCc1ccccc1Cl`, the figure is 11.2 µM [rising, partial curve]; as for `COc1ccc(CCN(C)CC(O)c2ccccc2)cc1OC` (stereo not drawn), 5.62 µM [rising, single point].
On to `Cc1ccc(-n2nnnc2-c2cnc(-c3cccnc3)nc2C(F)(F)F)cc1`, for which, under setting [1], the half-maximal activity concentration (AC50) was 32.6 µM [falling, single point].
For `Cc1cc(Br)ccc1NC(=O)c1cnc(N2CCN(c3ccccn3)CC2)c2ccccc12`, under setting [1], the AC50 was 5.62 µM [falling, full curve].
In the case of `CC[C@]12c3[nH]c4cc(-c5ccco5)ccc4c3CCN1C(=O)[C@@H](CC(=O)NCCCn1ccnc1)C[C@@H]2C(=O)N1CCN(C(=O)C2CC2)CC1`, the AC50 under setting [1] is 20.6 µM [rising, single point].
For the molecule `CC1COC(Cn2c3ccccc3c3ccccc32)O1` (stereo not drawn), under setting [1], the AC50 was 5.01 µM [rising, partial curve, poor fit].
Still for that read-out and setting: next, `Cc1nc2nc(-c3ccc(Cl)cc3)cn2nc1C`: 29.1 µM [rising, partial curve, poor fit].
As to `Cn1c2cc(Br)sc2c2cnn(Cc3c(F)cccc3Cl)c(=O)c21`, the AC50 under setting [1] was 29.1 µM [rising, single point] and the AC50 under setting [2] was 13 µM [falling, partial curve, poor fit].
Turning to `C=CCNc1oc(-c2ccc(OC)cc2)nc1C#N`, under setting [1], the AC50 was 10.3 µM [rising, partial curve, poor fit].
Still for that read-out and setting: next, `Cc1cccc(N=Nc2ccc(O)c3ncccc23)c1`: 2.59 µM [rising, full curve].
`CCc1c(C)nc2nc(SCc3ccccc3Cl)[nH]n2c1=O`: the AC50 under setting [1] is 8.91 µM [falling, partial curve].
Still for that read-out and setting: as for `Cc1ccccc1NC(=O)COC(=O)CCC(=O)c1cccs1`, the figure is 32.6 µM [rising, partial curve, poor fit].
Take `CCCCn1c(SCC(=O)N2CCCC2)nnc1-c1ccccc1`: the AC50 under setting [1] was 8.2 µM [falling, partial curve, poor fit].
For `O=C(CCNC(=O)c1ccccc1)N/N=C/c1ccc([N+](=O)[O-])cc1`, the AC50 under setting [1] was 11.2 µM [falling, partial curve, poor fit].
Consider `Cc1ccc(NC(=O)[C@H](CC(C)C)NC(=O)[C@@H]2Cc3ccccc3CN2)cc1`, for which the AC50 under setting [1] was 3.16 µM [rising, full curve, poor fit].
On the same count and under the same terms, next, `COc1ccccc1/C=C/c1nc(C#N)c(N(C)C)o1`: 7.08 µM [rising, full curve]; `Cc1cccc(C)c1NC(=S)NNc1ncc(C(F)(F)F)cc1Cl`: 6.51 µM [falling, full curve]; `O=C(CCl)N(c1ccccc1)c1c[nH]c2ccccc12`: 7.08 µM [falling, partial curve, poor fit].
For `O=S(=O)(Cc1cc(-c2ccccc2)no1)c1ccccc1`, the AC50 under setting [1] was 15.8 µM [falling, single point].
Consider `CCN1CCN(CCCOc2ccc(Cl)cc2Br)CC1`, for which the AC50 under setting [1] is 35.5 µM [falling, single point].
Turning to `CC(=O)CSc1nc(N)c(C#N)c(-c2cccs2)c1C#N`, under setting [1], the AC50 was 2.31 µM [falling, partial curve, poor fit].
In the case of `CC1CC1C(=O)Nc1nc(-c2ccccn2)cs1` (stereo not drawn), the AC50 under setting [1] was 0.366 µM [rising, full curve, poor fit].
`COc1ccc(-c2noc(CCC(=O)N3CCN(c4ccccc4F)CC3)n2)cc1`: the AC50 under setting [1] is 29.1 µM [rising, partial curve, poor fit].
Turning to `Cc1ccc(C)c(NC(=O)CN(C)C(=O)CN2C(=O)C3CCCCC3C2=O)c1` (stereo not drawn), under setting [1], the AC50 is 16.4 µM [falling, single point].
With `CCCCCC(=O)N/N=C/c1cccs1`, under setting [1], the AC50 was 3.98 µM [rising, full curve, poor fit].
On to `O=C(CCNC(=O)c1ccco1)Nc1cccc(C(F)(F)F)c1`, for which the AC50 under setting [1] is 8.91 µM [rising, partial curve, poor fit].
As for `O=C(CC(SCc1ccco1)c1ccc(O)cc1)c1cccs1` (stereo not drawn), the AC50 under setting [1] was 35.5 µM [falling, single point].
Same read-out and setting: as for `CCOc1ccccc1-c1c2cc(O)c(=O)cc-2oc2cc(O)c(O)cc12`, the figure is 29.1 µM [rising, single point].
Consider `CC(=O)N(C)/C=C1\Sc2ccccc2C1=O`, for which, under setting [1], the AC50 was 12.6 µM [falling, partial curve, poor fit].
`COC(=O)c1ccc(N=NN2CCCCCC2)cc1`: the AC50 under setting [1] was 29.1 µM [rising, single point].
As for `COc1ccc(Nc2cc(O)c3ncccc3c2)cc1`, the AC50 under setting [1] was 14.6 µM [falling, partial curve, poor fit].
Regarding `COc1cc(C(=O)Sc2ccc(Cl)cc2)cc(OC)c1OC`, under setting [1], the AC50 is 3.16 µM [falling, partial curve, poor fit].
As for `COc1ccccc1CNC(=O)c1ccc(SC)cc1OC`, the AC50 under setting [1] was 6.31 µM [falling, full curve, poor fit].
`O=C(Nc1nc2ccc(S(=O)(=O)N3CCCC3)cc2s1)C1CCCCC1`: the AC50 under setting [2] is 29.1 µM [falling, single point].
Turning to `COCCN1C=C2C(=O)C(C)(OC(=O)CCc3ccccc3)C(=O)C=C2C=C1c1ccc(C#N)cc1` (stereo not drawn), the half-maximal activity concentration (AC50) under setting [1] was 0.0891 µM [rising, full curve, poor fit].
Turning to `CC(NC(=O)C(=O)NCC1CCCO1)c1ccccc1` (stereo not drawn), the AC50 under setting [1] is 14.1 µM [rising, single point].
Take `CCOC(=O)CCc1c(C)nc2cc(-c3ccccc3OC)[nH]n2c1=O`: under setting [1], the AC50 was 16.4 µM [falling, partial curve].
On to `COc1ccc(OC)c(-c2csc(NC(=O)Cc3ccccc3)n2)c1`, for which, under setting [1], the AC50 is 20 µM [rising, partial curve, poor fit].
